For 2 molecules, binding results are on record in PMC2976706.

Amino acid sequences for entries named in this document (tags omitted).
UniProt Q01094: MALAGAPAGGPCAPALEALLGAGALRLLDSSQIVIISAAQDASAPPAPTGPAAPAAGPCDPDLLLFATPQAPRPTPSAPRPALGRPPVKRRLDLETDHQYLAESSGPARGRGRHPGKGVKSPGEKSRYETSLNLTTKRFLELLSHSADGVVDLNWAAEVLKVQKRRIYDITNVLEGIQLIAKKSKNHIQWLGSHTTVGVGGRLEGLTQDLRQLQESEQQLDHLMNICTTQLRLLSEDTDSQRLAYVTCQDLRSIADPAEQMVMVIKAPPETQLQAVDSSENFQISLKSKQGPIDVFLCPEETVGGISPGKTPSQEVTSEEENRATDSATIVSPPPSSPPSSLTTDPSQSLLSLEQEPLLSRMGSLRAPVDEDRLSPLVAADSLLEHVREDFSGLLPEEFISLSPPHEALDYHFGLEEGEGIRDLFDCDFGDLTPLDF

These are yes or no findings as the source states them, for the method shown. In cells and extracts the contact can be indirect. Some binding calls cover weakened binding; strength is not graded here. For some of these results: Where a sequence is shown, tags or fusion partners need not be part of it.

The target in assay [1] is T1, HA-Orc1 LPGRK (U2OS) (human) (UniProt Q13415).
T1 sequence: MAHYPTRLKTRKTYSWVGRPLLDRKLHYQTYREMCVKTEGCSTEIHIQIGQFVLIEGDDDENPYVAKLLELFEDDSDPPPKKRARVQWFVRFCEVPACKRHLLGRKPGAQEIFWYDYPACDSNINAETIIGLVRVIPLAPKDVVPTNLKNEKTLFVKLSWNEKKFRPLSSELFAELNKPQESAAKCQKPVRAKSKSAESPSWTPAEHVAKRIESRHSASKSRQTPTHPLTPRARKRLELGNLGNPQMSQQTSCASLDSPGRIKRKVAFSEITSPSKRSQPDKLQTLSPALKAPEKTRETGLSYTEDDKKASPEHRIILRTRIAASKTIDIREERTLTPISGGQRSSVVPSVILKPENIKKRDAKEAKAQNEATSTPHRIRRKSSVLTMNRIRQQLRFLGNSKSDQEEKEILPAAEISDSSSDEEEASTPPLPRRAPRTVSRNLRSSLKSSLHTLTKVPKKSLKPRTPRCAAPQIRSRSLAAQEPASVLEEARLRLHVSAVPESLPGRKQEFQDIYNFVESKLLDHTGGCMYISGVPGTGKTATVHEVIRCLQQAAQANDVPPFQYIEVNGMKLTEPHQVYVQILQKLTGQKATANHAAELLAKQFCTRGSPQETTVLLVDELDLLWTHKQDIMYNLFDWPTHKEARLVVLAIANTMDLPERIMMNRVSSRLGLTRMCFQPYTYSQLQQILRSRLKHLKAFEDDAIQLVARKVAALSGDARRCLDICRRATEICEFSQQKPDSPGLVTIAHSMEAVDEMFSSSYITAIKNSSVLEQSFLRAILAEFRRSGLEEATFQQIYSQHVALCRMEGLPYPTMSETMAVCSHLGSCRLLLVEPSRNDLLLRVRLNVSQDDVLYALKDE
The assay can be described thus: co-IP; anti-HA immunoprecipitation from U2OS cells transfected with wt HA-Orc1 or HA-Orc1 LPGRK; western blot for endogenous Rb. On the technique in general: In western blotting, separated proteins are transferred to a membrane and probed.

Assay [2] deals with T2, wt HA-Orc1 (U2OS) (human) (UniProt Q13415).
T2 sequence: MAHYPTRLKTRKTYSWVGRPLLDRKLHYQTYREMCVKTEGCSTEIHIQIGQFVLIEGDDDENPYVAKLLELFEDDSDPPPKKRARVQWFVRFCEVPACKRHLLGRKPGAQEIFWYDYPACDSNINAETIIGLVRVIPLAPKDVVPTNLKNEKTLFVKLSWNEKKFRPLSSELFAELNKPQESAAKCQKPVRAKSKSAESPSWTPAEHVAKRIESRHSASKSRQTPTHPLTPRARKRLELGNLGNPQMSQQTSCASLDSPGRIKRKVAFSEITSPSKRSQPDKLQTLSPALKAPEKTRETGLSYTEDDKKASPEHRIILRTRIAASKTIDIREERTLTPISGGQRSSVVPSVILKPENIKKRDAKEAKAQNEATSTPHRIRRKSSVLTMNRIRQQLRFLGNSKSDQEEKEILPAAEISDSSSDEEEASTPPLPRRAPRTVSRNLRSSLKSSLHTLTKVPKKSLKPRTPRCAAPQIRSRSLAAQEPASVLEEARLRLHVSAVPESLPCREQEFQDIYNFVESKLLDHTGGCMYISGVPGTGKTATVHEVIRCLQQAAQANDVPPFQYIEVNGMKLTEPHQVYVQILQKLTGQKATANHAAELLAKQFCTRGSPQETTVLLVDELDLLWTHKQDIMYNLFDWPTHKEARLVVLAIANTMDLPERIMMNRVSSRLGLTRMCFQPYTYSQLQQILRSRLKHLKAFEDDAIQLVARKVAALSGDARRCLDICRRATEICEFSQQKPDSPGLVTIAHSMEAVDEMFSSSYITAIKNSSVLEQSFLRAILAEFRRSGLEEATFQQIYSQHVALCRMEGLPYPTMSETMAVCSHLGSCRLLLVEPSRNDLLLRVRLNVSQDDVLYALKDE
The assay is described as above.

Another assay has as its target GST-E2F1 (human) (UniProt Q01094). The assay can be described thus: pull-down; 1 ug GST fusion protein on glutathione-agarose beads, pretreated with DNase I and RNase A, incubated with in vitro translated [35S]-protein in 0.1 mg/ml ethidium bromide; SDS-PAGE, phosphoimaging; only the target purified.
The target in the next assay is T3, GST-Rb (379-928) (human) (UniProt P06400).
T3 sequence: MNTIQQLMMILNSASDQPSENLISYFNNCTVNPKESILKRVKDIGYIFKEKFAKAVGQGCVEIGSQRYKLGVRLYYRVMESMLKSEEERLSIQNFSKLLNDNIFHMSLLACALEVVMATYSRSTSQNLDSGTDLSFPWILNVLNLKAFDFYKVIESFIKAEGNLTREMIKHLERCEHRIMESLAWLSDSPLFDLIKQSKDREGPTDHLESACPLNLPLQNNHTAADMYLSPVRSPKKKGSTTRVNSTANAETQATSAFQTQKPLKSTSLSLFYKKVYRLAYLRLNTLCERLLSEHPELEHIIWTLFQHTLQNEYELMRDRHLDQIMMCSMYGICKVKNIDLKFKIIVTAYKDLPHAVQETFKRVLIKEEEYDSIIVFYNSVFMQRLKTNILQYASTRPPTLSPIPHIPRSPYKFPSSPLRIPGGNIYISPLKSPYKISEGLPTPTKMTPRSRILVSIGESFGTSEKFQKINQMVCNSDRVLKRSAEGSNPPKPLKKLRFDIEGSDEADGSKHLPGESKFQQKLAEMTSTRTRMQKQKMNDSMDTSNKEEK
The assay is described as above.

B1: endogenous Rb (U2OS) (protein, UniProt P06400 1-928)
chain: MPPKTPRKTAATAAAAAAEPPAPPPPPPPEEDPEQDSGPEDLPLVRLEFEETEEPDFTALCQKLKIPDHVRERAWLTWEKVSSVDGVLGGYIQKKKELWGICIFIAAVDLDEMSFTFTELQKNIEISVHKFFNLLKEIDTSTKVDNAMSRLLKKYDVLFALFSKLERTCELIYLTQPSSSISTEINSALVLKVSWITFLLAKGEVLQMEDDLVISFQLMLCVLDYFIKLSPPMLLKEPYKTAVIPINGSPRTPRRGQNRSARIAKQLENDTRIIEVLCKEHECNIDEVKNVYFKNFIPFMNSLGLVTSNGLPEVENLSKRYEEIYLKNKDLDARLFLDHDKTLQTDSIDSFETQRTPRKSNLDEEVNVIPPHTPVRTVMNTIQQLMMILNSASDQPSENLISYFNNCTVNPKESILKRVKDIGYIFKEKFAKAVGQGCVEIGSQRYKLGVRLYYRVMESMLKSEEERLSIQNFSKLLNDNIFHMSLLACALEVVMATYSRSTSQNLDSGTDLSFPWILNVLNLKAFDFYKVIESFIKAEGNLTREMIKHLERCEHRIMESLAWLSDSPLFDLIKQSKDREGPTDHLESACPLNLPLQNNHTAADMYLSPVRSPKKKGSTTRVNSTANAETQATSAFQTQKPLKSTSLSLFYKKVYRLAYLRLNTLCERLLSEHPELEHIIWTLFQHTLQNEYELMRDRHLDQIMMCSMYGICKVKNIDLKFKIIVTAYKDLPHAVQETFKRVLIKEEEYDSIIVFYNSVFMQRLKTNILQYASTRPPTLSPIPHIPRSPYKFPSSPLRIPGGNIYISPLKSPYKISEGLPTPTKMTPRSRILVSIGESFGTSEKFQKINQMVCNSDRVLKRSAEGSNPPKPLKKLRFDIEGSDEADGSKHLPGESKFQQKLAEMTSTRTRMQKQKMNDSMDTSNKEEK
In the case of B1, the binding result in assay [1] and in assay [2] was “binds” in each case.

B2: in vitro translated [35S]-labelled Orc2 (protein, UniProt Q13416 1-577)
chain: MSKPELKEDKMLEVHFVGDDDVLNHILDREGGAKLKKERAQLLVNPKKIIKKPEYDLEEDDQEVLKDQNYVEIMGRDVQESLKNGSATGGGNKVYSFQNRKHSEKMAKLASELAKTPQKSVSFSLKNDPEITINVPQSSKGHSASDKVQPKNNDKSEFLSTAPRSLRKRLIVPRSHSDSESEYSASNSEDDEGVAQEHEEDTNAVIFSQKIQAQNRVVSAPVGKETPSKRMKRDKTSDLVEEYFEAHSSSKVLTSDRTLQKLKRAKLDQQTLRNLLSKVSPSFSAELKQLNQQYEKLFHKWMLQLHLGFNIVLYGLGSKRDLLERFRTTMLQDSIHVVINGFFPGISVKSVLNSITEEVLDHMGTFRSILDQLDWIVNKFKEDSSLELFLLIHNLDSQMLRGEKSQQIIGQLSSLHNIYLIASIDHLNAPLMWDHAKQSLFNWLWYETTTYSPYTEETSYENSLLVKQSGSLPLSSLTHVLRSLTPNARGIFRLLIKYQLDNQDNPSYIGLSFQDFYQQCREAFLVNSDLTLRAQLTEFRDHKLIRTKKGTDGVEYLLIPVDNGTLTDFLEKEEEEA
modifications: [35S]-labelled
On to B2, for which the binding entry in the assay with GST-E2F1 (human) and with GST-Rb (379-928) (human) was “no binding” each time.
